We go through 6 molecules from doi:10.1101/2025.01.19.633807.

Chains of the proteins cited; added tags and fusions are not shown. Residues count along the entry.
UniProt P35637: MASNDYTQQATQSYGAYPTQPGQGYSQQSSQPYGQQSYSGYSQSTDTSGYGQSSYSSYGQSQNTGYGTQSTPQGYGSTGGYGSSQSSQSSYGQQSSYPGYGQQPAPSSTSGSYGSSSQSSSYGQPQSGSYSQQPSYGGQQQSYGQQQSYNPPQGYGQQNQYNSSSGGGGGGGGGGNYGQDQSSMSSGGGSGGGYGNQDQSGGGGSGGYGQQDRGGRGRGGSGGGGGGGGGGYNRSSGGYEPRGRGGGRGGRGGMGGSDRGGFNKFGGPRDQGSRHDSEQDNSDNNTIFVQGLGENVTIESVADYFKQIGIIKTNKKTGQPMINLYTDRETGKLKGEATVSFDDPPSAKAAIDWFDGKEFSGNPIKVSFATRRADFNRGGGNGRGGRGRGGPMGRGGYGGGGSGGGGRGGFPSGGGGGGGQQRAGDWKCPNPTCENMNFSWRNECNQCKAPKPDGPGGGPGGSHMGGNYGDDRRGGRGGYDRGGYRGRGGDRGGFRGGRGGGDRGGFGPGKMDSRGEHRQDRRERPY
UniProt P02545, residues 1-646: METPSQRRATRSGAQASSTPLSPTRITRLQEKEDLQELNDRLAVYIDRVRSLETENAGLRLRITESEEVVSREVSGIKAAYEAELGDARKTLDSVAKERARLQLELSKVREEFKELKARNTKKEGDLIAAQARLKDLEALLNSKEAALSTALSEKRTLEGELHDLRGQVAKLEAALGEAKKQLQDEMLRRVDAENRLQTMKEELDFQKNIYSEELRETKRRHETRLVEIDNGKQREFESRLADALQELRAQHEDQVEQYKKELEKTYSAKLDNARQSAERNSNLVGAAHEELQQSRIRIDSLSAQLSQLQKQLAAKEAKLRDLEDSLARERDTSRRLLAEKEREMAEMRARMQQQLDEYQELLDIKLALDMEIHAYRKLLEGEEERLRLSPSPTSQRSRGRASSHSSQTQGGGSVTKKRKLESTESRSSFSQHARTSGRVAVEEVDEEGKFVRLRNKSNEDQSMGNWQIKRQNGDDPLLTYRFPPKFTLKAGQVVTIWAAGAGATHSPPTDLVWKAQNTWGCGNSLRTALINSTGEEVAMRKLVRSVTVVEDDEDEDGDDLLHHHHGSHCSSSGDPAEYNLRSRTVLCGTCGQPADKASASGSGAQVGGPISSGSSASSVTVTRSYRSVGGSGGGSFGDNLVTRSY

No constants are given. Whether binding was seen depends on the method and setting. In cells and extracts the contact can be indirect. Here binding means that the protein was enriched with, or labelled near, the bait; the list need not be complete. For some of these results: A no says only that the protein was not detected with the bait. Sequences can lack the tags named with a protein.

Assay [1] addresses T1, TurboID-GYS1 fusion enzyme (UniProt P13807).
T1 sequence: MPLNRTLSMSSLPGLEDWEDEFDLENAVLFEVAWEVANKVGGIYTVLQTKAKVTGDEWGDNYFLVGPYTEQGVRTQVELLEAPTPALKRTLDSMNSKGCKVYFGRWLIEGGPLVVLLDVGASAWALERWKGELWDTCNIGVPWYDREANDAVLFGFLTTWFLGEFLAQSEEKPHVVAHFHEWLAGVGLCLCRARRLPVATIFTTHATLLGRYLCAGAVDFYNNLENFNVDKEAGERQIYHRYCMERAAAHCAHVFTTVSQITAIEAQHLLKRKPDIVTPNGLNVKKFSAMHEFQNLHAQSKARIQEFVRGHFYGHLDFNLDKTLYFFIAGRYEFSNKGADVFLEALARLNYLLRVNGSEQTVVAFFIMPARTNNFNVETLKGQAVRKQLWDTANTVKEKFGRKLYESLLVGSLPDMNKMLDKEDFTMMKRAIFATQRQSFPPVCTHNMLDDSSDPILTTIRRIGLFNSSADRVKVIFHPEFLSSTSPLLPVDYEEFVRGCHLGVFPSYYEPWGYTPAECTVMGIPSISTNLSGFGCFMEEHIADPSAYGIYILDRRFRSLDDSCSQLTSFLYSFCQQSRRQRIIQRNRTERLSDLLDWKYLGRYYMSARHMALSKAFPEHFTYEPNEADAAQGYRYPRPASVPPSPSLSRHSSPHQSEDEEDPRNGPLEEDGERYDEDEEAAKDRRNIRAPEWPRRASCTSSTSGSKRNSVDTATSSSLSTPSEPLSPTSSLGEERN
Description: affinity purification with mass spectrometry + proximity labelling.

For assay [2], the target named is T1, TurboID-GYS1 fusion enzyme. Description: proximity labelling.

In the case of “Fused in sarcoma (FUS) (from UniProt P35637 1-526)”, the binding entry in assay [1] and in assay [2] was “binds” in each case.

Turning to Lamin A/C (from UniProt P02545 1-646), the binding entry in assay [2] was “no binding”.

B1: Paraspeckle component 1 (PSPC1) (protein, UniProt Q8WXF1 1-523)
chain: MMLRGNLKQVRIEKNPARLRALESAVGESEPAAAAAMALALAGEPAPPAPAPPEDHPDEEMGFTIDIKSFLKPGEKTYTQRCRLFVGNLPTDITEEDFKRLFERYGEPSEVFINRDRGFGFIRLESRTLAEIAKAELDGTILKSRPLRIRFATHGAALTVKNLSPVVSNELLEQAFSQFGPVEKAVVVVDDRGRATGKGFVEFAAKPPARKALERCGDGAFLLTTTPRPVIVEPMEQFDDEDGLPEKLMQKTQQYHKEREQPPRFAQPGTFEFEYASRWKALDEMEKQQREQVDRNIREAKEKLEAEMEAARHEHQLMLMRQDLMRRQEELRRLEELRNQELQKRKQIQLRHEEEHRRREEEMIRHREQEELRRQQEGFKPNYMENREQEMRMGDMGPRGAINMGDAFSPAPAGNQGPPPMMGMNMNNRATIPGPPMGPGPAMGPEGAANMGTPMMPDNGAVHNDRFPQGPPSQMGSPMGSRTGSETPQAPMSGVGPVSGGPGGFGRGSQGGNFEGPNKRRRY
For B1, the binding result in assay [1] and in assay [2] was “binds” throughout.

B2: Non-POU domain-containing octamer-binding protein NONO (p54^nrb), endogenous (protein, UniProt Q15233 1-471)
chain: MQSNKTFNLEKQNHTPRKHHQHHHQQQHHQQQQQQPPPPPIPANGQQASSQNEGLTIDLKNFRKPGEKTFTQRSRLFVGNLPPDITEEEMRKLFEKYGKAGEVFIHKDKGFGFIRLETRTLAEIAKVELDNMPLRGKQLRVRFACHSASLTVRNLPQYVSNELLEEAFSVFGQVERAVVIVDDRGRPSGKGIVEFSGKPAARKALDRCSEGSFLLTTFPRPVTVEPMDQLDDEEGLPEKLVIKNQQFHKEREQPPRFAQPGSFEYEYAMRWKALIEMEKQQQDQVDRNIKEAREKLEMEMEAARHEHQVMLMRQDLMRRQEELRRMEELHNQEVQKRKQLELRQEEERRRREEEMRRQQEEMMRRQQEGFKGTFPDAREQEIRMGQMAMGGAMGINNRGAMPPAPVPAGTPAPPGPATMMPDGTLGLTPPTTERFGQAATMEGIGAIGGTPPAFNRAAPGAEFAPNKRRRY
Consider B2, for which the binding result in assay [1] and in assay [2] was “binds” in each case.

B3: RNA binding motif protein 14 (RBM14) (protein, UniProt Q96PK6 1-669)
chain: MKIFVGNVDGADTTPEELAALFAPYGTVMSCAVMKQFAFVHMRENAGALRAIEALHGHELRPGRALVVEMSRPRPLNTWKIFVGNVSAACTSQELRSLFERRGRVIECDVVKDYAFVHMEKEADAKAAIAQLNGKEVKGKRINVELSTKGQKKGPGLAVQSGDKTKKPGAGDTAFPGTGGFSATFDYQQAFGNSTGGFDGQARQPTPPFFGRDRSPLRRSPPRASYVAPLTAQPATYRAQPSVSLGAAYRAQPSASLGVGYRTQPMTAQAASYRAQPSVSLGAPYRGQLASPSSQSAAASSLGPYGGAQPSASALSSYGGQAAAASSLNSYGAQGSSLASYGNQPSSYGAQAASSYGVRAAASSYNTQGAASSLGSYGAQAASYGAQSAASSLAYGAQAASYNAQPSASYNAQSAPYAAQQAASYSSQPAAYVAQPATAAAYASQPAAYAAQATTPMAGSYGAQPVVQTQLNSYGAQASMGLSGSYGAQSAAAATGSYGAAAAYGAQPSATLAAPYRTQSSASLAASYAAQQHPQAAASYRGQPGNAYDGAGQPSAAYLSMSQGAVANANSTPPPYERTRLSPPRASYDDPYKKAVAMSKRYGSDRRLAELSDYRRLSESQLSFRRSPTKSSLDYRRLPDAHSDYARYSGSYNDYLRAAQMHSGYQRRM
As to B3, the binding entry in assay [1] and in assay [2] was “binds” throughout.

B4: Nuclear speckle protein SC35 (splicing component 35K) (protein, UniProt Q01130 1-221)
chain: MSYGRPPPDVEGMTSLKVDNLTYRTSPDTLRRVFEKYGRVGDVYIPRDRYTKESRGFAFVRFHDKRDAEDAMDAMDGAVLDGRELRVQMARYGRPPDSHHSRRGPPPRRYGGGGYGRRSRSPRRRRRSRSRSRSRSRSRSRSRYSRSKSRSRTRSRSRSTSKSRSARRSKSKSSSVSRSRSRSRSRSRSRSPPPVSKRESKSRSRSKSPPKSPEEEGAVSS
As for B4, the binding result in assay [2] was “no binding”.
